# Experimental data: PubChem BioAssay AID504467 (National Center for Advancing Translational Sciences (NCATS), 2011)
# Screen size: about 330,000 compounds; about 7,700 (2.3%) were called active. Inconclusive results, whose numbers are uncertain, are shown with a selection of clear calls. Calls come from the whole dose curve; as a rule, active = well fitted inhibition curve with a large enough effect; inconclusive = small, poorly fitted or top-dose-only effect, or effect the other way; inactive = flat fitted curve, though single readings scatter. A potency beside an inconclusive call is a rough fit, not a confirmed value.
# Test: qHTS screen for small molecules that inhibit ELG1-dependent DNA repair in human embryonic kidney (HEK293T) cells expressing luciferase-tagged ELG1; note: nearly all actives have a fitted effect of over 55% in size
# Details: HEK293T ELG1-luciferase reporter, luminescence, 16 h, DNA damage induced by 5-fluorouridine; activity change, negative = inhibition: at 46.1 µM (top of the series)
# In short: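 HEK293T cells expressing luciferase-tagged ELG1 (2,000/well) received 5-Fluorouridine plus compound or DMSO for 16 hr at 37 °C. Luciferase was read by ONE-Glo luminescence after 30 min at room temperature.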
# % is set by controls: 0 for no effect and ±100 for the full control effect; potency is the fitted concentration of half-maximal effect.
SMILES,Potency,"activity change, negative = inhibition"
COC(=O)C1NN=C(C(=O)c2ccc(Cl)cc2)C1c1ccc(OC)cc1 (stereo not drawn),"inconclusive: 20.6 µM [inhibitor, partial curve, poor fit]",–
COc1ccc(Nc2nc3ccccc3nc2-n2nc(C)cc2C)cc1,–,inactive: -5.39%
CCn1c(C)nc2cc(C(=O)N/N=C/c3ccccc3C)ccc21,"inconclusive: 2.59 µM [activator, partial curve]",–
COc1ccc(-n2nc(C(=O)NCC(=O)N3CCCC3)c3ccccc3c2=O)cc1,–,inactive: 18.5%
CN(C)CCNC(=O)c1cc2c(s1)-c1ccccc1OC2,"inconclusive: 18.4 µM [activator, partial curve]",–
Cc1ccc(C)c(N2CCN(C(=O)c3nn(C)c4c3CS(=O)(=O)c3ccccc3-4)CC2)c1,"inconclusive: 29.1 µM [inhibitor, single point]",–
CCOc1cc(CNn2c(C)nnc2SCC(=O)NC(C)(C)C)ccc1OCC(=O)NC(C)(C)C,"inconclusive: 18.3 µM [inhibitor, single point]",–
CCN(CC)c1ccc(C=Nc2cc(C)ccc2C)c(O)c1,"inconclusive: 20.6 µM [activator, partial curve, poor fit]",–
CCOC(=O)C1CCCN(S(=O)(=O)c2ccccc2)C1 (stereo not drawn),–,inactive: 5.06%
CCOc1ccccc1NC(=O)c1cccc(NC(=O)CC(c2ccccc2)c2ccccc2)c1,–,inactive: -24.8%
O=c1[nH]c2cc(Br)cnc2nc1/C=C(\O)c1ccc(F)cc1,–,inactive: 2.14%
NC(=O)c1ccc(NC(=O)COC(=O)C2CC(=O)N(Cc3ccccc3)C2)cc1 (stereo not drawn),–,inactive: 4.96%
CCS(=O)(=O)N1CCC(C(=O)Oc2ccc(C)c(C)c2)CC1,–,inactive: 9%
CCN(CC)S(=O)(=O)c1cc(C(=O)N2CCc3ccccc32)ccc1Cl,"inconclusive: 14.6 µM [inhibitor, partial curve, poor fit]",–
Cc1cc(Cl)ccc1NNC(=O)c1cccs1,"inconclusive: 25.9 µM [inhibitor, single point]",–
O=S(Cc1ccc(Cl)cc1)c1ncc(CO)n1Cc1ccccc1 (stereo not drawn),"inconclusive: 29.1 µM [inhibitor, single point]",–
O=C(COc1ccc(Br)cc1)OCCN1CCCCC1,"inconclusive: 11.2 µM [inhibitor, single point]",–
Cc1cc(C)c2c(C)[nH]nc2n1,"inconclusive: 29.1 µM [activator, single point]",–
COc1ccc(C(=O)C(Sc2nnc(C)c(=O)[nH]2)c2ccc(OC)cc2)cc1 (stereo not drawn),–,inactive: -0.327%
COc1cc(OC)cc(C(=O)NNC(=O)c2ccc3c(c2)OCCO3)c1,"inconclusive: 20.6 µM [activator, single point]",–
Fc1ccc(Nc2c(-c3ccco3)nc3ccccn23)cc1,"inconclusive: 18.4 µM [activator, partial curve]",–
N#CCCn1nc(-c2ccc(Br)cc2)cc1Nc1ccccc1NC(=O)C(F)(F)F,"inconclusive: 29.1 µM [inhibitor, single point]",–
C=CCn1c(Cc2c[nH]c3ccccc23)n[nH]c1=S,"inconclusive: 6.51 µM [activator, single point]",–

SMILES,Potency,"activity change, negative = inhibition"
Cc1ccc(NC(=O)C(=O)NCCN2CCN(C(=O)C(c3ccccc3)c3ccccc3)CC2)cc1,"inconclusive: 25.9 µM [inhibitor, single point]",–
Cc1ccc2[nH]c(=O)c(CN(CCCN(C)C)C(=O)Nc3ccc(F)cc3)cc2c1,"inconclusive: 23.1 µM [activator, partial curve, poor fit]",–
Cc1c(C(=O)N(C)Cc2cccc(F)c2)oc2c(Cl)cccc12,–,inactive: -0.932%
CCc1ccc(C(=O)C(C)OC(=O)c2cccc(S(=O)(=O)N3CCOCC3)c2)cc1 (stereo not drawn),"inconclusive: 16.4 µM [inhibitor, partial curve, poor fit]",–
CCc1ccc(NC2Nc3cc(C)nn3S2)cc1 (stereo not drawn),"inconclusive: 8.2 µM [activator, partial curve]",–
Cc1cc(NCCCN2CCOCC2)n2ncc(-c3ccccc3)c2n1,"inconclusive: 1.3 µM [activator, full curve]",–
O=C(CSc1ccccn1)Nc1ccc2c(c1)C(=O)c1ccccc1C2=O,"inconclusive: 5.17 µM [activator, partial curve]",–
Cc1[nH]n2c(=O)c3c(nc2c1-c1ccccc1)CCC3,–,inactive: -0.97%
CNC(=O)c1ncoc1-c1ccc(Cl)cc1,"inconclusive: 20.6 µM [activator, partial curve, poor fit]",–
O=C(NC1CCCCC1)c1ccc2c(c1)OCO2,"inconclusive: 23.1 µM [activator, partial curve]",–
Nc1[nH]n(-c2ccccc2)c(=O)c1N=Nc1ccc2c(c1)OCO2,"inconclusive: 23.1 µM [activator, partial curve]",–
O=C(NC1CCCCC1)C(=S)NCCc1ccccc1,"inconclusive: 20.6 µM [activator, single point]",–
COc1cccc(C(=O)C2CCCN(C(=O)CCC3=NNC(=O)CC3)C2)c1 (stereo not drawn),–,inactive: 19.2%
Cc1ccc(NC(=O)Cn2cnc3sc(C(=O)NCc4ccco4)c(C)c3c2=O)cc1Cl,"inconclusive: 23.1 µM [inhibitor, single point]",–
COc1ccc(OCc2cc(C(=O)N3CCC(OC)CC3)no2)c2ccccc12,"inconclusive: 20.6 µM [activator, partial curve]",–
COc1ccc(C(=O)Nc2cccc(C)c2)cc1S(=O)(=O)N1CCOCC1,"inconclusive: 14.1 µM [inhibitor, single point]",–
COc1ccc(S(=O)(=O)N2CCN(CC(=O)Nc3ccccc3Cl)CC2)cc1,–,inactive: -5.26%
Cc1nc(-c2cccc(NC(=O)c3ccc(-n4nccc4C)cc3)c2)cs1,"inconclusive: 29.1 µM [inhibitor, single point]",–
CC(=O)c1cc2c(cc1NC(=O)CSc1ccc(S(=O)(=O)N(C)C)cn1)OCO2,"inconclusive: 20.6 µM [inhibitor, partial curve, poor fit]",–
Cc1ccnn1CCC(=O)N1CCCC(N2CCN(c3cccc(Cl)c3)CC2)C1 (stereo not drawn),–,inactive: -7.33%
NC(=O)C1CCCN(C(=O)CNC(=O)C23CC4CC(CC(C4)C2)C3)C1 (stereo not drawn),–,inactive: 7.01%
Cc1ccccc1-n1c(C)cc(/C=C(\C#N)C(=O)NCC2CCCO2)c1C (stereo not drawn),"inconclusive: 8.2 µM [activator, partial curve]",–
COc1cc(OC)cc(C(=O)N2CCN(c3ccccc3F)CC2)c1,"inconclusive: 23.1 µM [inhibitor, partial curve, poor fit]",–

SMILES,Potency,"activity change, negative = inhibition"
CCCCC(=O)Nc1nc(C)c(-c2csc(Nc3ccccc3OC)n2)s1,active: 16.4 µM,–
Cc1ccc(CSc2nc3c(c(=O)[nH]2)CCC3)cc1,"inconclusive: 20.6 µM [activator, partial curve]",–
CCN(c1ccccc1)S(=O)(=O)c1cc([N+](=O)[O-])ccc1N,"inconclusive: 20.6 µM [activator, partial curve]",–
CCOP(=O)(OCC)C(C)(C)NC(=O)Nc1ccc(Cl)c(Cl)c1,"inconclusive: 23.1 µM [inhibitor, single point]",–
O=C(c1ccc(CNS(=O)(=O)c2ccc(Br)cc2)cc1)N1CCCCCC1,"inconclusive: 13 µM [inhibitor, partial curve]",–
O=c1c(C=NCC2CCCO2)c(-c2ccccc2)[nH]n1-c1ccc([N+](=O)[O-])cc1 (stereo not drawn),"inconclusive: 25.9 µM [inhibitor, single point]",–
COc1cccc(CN2CCN(Cc3ccc(OC)c(OC)c3)CC2CCO)c1 (stereo not drawn),"inconclusive: 29.1 µM [activator, partial curve, poor fit]",–
CCOC(=O)N/N=C/c1ccc(OC)c(O)c1,"inconclusive: 29.1 µM [inhibitor, single point]",–
CC(C)=CCN1CCN(Cc2ccc(N3CCNC3=O)cc2)CC1CCO (stereo not drawn),"inconclusive: 29.1 µM [activator, single point]",–
CC(NC(=O)c1cccs1)C(c1cccs1)N1CCN(c2ccccc2)CC1 (stereo not drawn),"inconclusive: 29.1 µM [inhibitor, single point]",–
NC(=S)Cc1nc(-c2ccccc2)cs1,"inconclusive: 16.4 µM [activator, single point]",–
CN1C(CC(=O)Nc2ccc(Cl)cc2Cl)c2ccccc2CC1(C)C (stereo not drawn),"inconclusive: 29.1 µM [inhibitor, single point]",–
Cn1c(N)c(C(=O)COC(=O)COc2ccccc2Cl)c(=O)n(C)c1=O,–,inactive: 7.36%
CCCCCCN(C(=O)CCCN1C(=O)NC(c2ccc(-c3ccccc3)cc2)C(C(=O)OCc2ccccc2)=C1C)C(C)C(=O)NCCCC (stereo not drawn),"inconclusive: 23.1 µM [inhibitor, single point]",–
CCOC(=O)c1c(-c2cccs2)csc1NC(=O)CSc1ncn[nH]1,–,inactive: -11.8%
COc1cccc(OC)c1OCCCCN1CCCCC1,"inconclusive: 0.0651 µM [inhibitor, partial curve, poor fit]",–
COc1ccc(OC)c(N/C=C/C(=O)c2ccccc2)c1,"inconclusive: 0.146 µM [activator, full curve]",–
Cc1cc(N2CCOCC2)nc2ccc(NC(=S)NCCC(C)C)cc12,"inconclusive: 5.8 µM [inhibitor, full curve]",–
CCOC(=O)c1ccc(N=Cc2nc(-c3ccccc3)oc2OC(C)=O)cc1,"inconclusive: 29.1 µM [activator, single point]",–
CNS(=O)(=O)c1cc(NC(=O)c2cccc3cccnc23)ccc1C,–,inactive: -23.3%
O=C(COc1ccccc1)N[C@@H]1c2ccccc2CC[C@H]1OCc1ccccc1,"inconclusive: 23.1 µM [inhibitor, single point]",–
Cc1cccc(NC(=O)NC(=S)NC(=O)c2ccccc2)c1,"inconclusive: 20.6 µM [activator, single point]",–

# Part of the list above in order of length of the SMILES, descending.
SMILES,Potency,"activity change, negative = inhibition"
CCOc1ccccc1NC(=O)c1cccc(NC(=O)CC(c2ccccc2)c2ccccc2)c1,–,inactive: -24.8%
CCOC(=O)c1ccc(N=Cc2nc(-c3ccccc3)oc2OC(C)=O)cc1,"inconclusive: 29.1 µM [activator, single point]",–
O=C(CSc1ccccn1)Nc1ccc2c(c1)C(=O)c1ccccc1C2=O,"inconclusive: 5.17 µM [activator, partial curve]",–
O=C(NC1CCCCC1)c1ccc2c(c1)OCO2,"inconclusive: 23.1 µM [activator, partial curve]",–
